## Assay results

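A counterscreen of light output from a stable CMV-driven luciferase line in HEK293 cells, measured one day after compound addition. Percent change in reporter signal versus neutral control wells at the top tested concentration; more negative values mean stronger inhibition. Inconclusive means the independent runs disagreed, the fit was flat at 30 to 70% inhibition, or the curve fit was poor.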

Values are in %. Every entry below has the call inconclusive. These entries are mostly ones the record files as inconclusive; other results of the assay are not listed here.

{"structure": "OC(CNCC(c1ccc(Cl)cc1Cl)c1c[nH]c2ccccc12)c1ccccc1", "stereo": "centres unmarked", "setting": "at 35 µM (top of the series)", "activity change (%)": "-16.24"}
{"structure": "Cc1cc(C)c2nc(C)cc(N/N=C/c3ccc(O)cc3)c2c1", "setting": "at 35 µM (top of the series)", "activity change (%)": "32.51"}
{"structure": "CCCCCC(=O)N/N=C(\\C)c1ccc(N2CCCCC2)cc1", "setting": "at 35 µM (top of the series)", "activity change (%)": "7.916"}
{"structure": "CCCC1=Nc2cc(C(=O)NCCCOCC)ccc2Sc2ccccc21", "setting": "at 35 µM (top of the series)", "activity change (%)": "-49.91"}
{"structure": "Cn1nnnc1Sc1ncnc2scc(-c3ccc(F)cc3)c12", "setting": "at 35 µM (top of the series)", "activity change (%)": "-46.88"}
{"structure": "Cc1ccc(C(=O)c2cc([N+](=O)[O-])ccc2N2CCCCC2)cc1", "setting": "at 35 µM (top of the series)", "activity change (%)": "-44.54"}
{"structure": "O=C(NC(Nc1nc2ccc([N+](=O)[O-])cc2s1)(C(F)(F)F)C(F)(F)F)c1ccccc1Cl", "setting": "at 35 µM (top of the series)", "activity change (%)": "-66.52"}
{"structure": "CC(C)(C)[C@H](N)C(=O)N[C@H]1CCC2C3CC=C4C[C@@H](O)CC[C@]4(C)C3CC[C@@]21C", "stereo": "some centres unmarked", "setting": "at 35 µM (top of the series)", "activity change (%)": "-7.809"}
{"structure": "CC(=O)N1CCc2c(sc(NC(=O)c3ccc([N+](=O)[O-])o3)c2C#N)C1", "setting": "at 35 µM (top of the series)", "activity change (%)": "18.24"}
{"structure": "CC1(C)CC(=O)c2sc(NC(=O)CCS(=O)(=O)c3ccccc3)nc2C1", "setting": "at 35 µM (top of the series)", "activity change (%)": "20.25"}
{"structure": "Cc1cc(C)c2c(N)c(C(=O)Nc3ncc(C)s3)sc2n1", "setting": "at 35 µM (top of the series)", "activity change (%)": "-99.32"}
{"structure": "C[C@H](CO)N1C[C@H](C)[C@@H](CN(C)Cc2ccc(C(F)(F)F)cc2)OCCCC[C@H](C)Oc2ccc(NS(=O)(=O)c3ccc(F)cc3)cc2C1=O", "setting": "at 35 µM (top of the series)", "activity change (%)": "-36.49"}
{"structure": "Clc1ccc(Cn2ncc3c(N4CCN(c5ccccc5)CC4)ncnc32)cc1", "setting": "at 35 µM (top of the series)", "activity change (%)": "-55.43"}
{"structure": "Oc1ccc(Cc2ccccc2)c2cccnc12", "setting": "at 35 µM (top of the series)", "activity change (%)": "-18.73"}
{"structure": "C[C@@H]1CN([C@H](C)CO)C(=O)c2cc(NC(=O)Nc3ccc(F)cc3)ccc2O[C@@H](C)CCCCO[C@H]1CN(C)S(=O)(=O)c1ccccc1", "setting": "at 35 µM (top of the series)", "activity change (%)": "-22.99"}
{"structure": "COC(=O)C1=C(C(=O)OC)C2OC1c1cc3ccccc3cc12", "setting": "at 35 µM (top of the series)", "activity change (%)": "-38.94"}
{"structure": "N#Cc1ccc2nc(-c3ccc(CN4CCC(n5c(=O)[nH]c6ccccc65)CC4)cc3)c(-c3ccccc3)nc2c1", "setting": "at 35 µM (top of the series)", "activity change (%)": "-57.12"}
{"structure": "Cn1c(SCC(=O)c2ccccc2)nnc1-c1ccccn1", "setting": "at 35 µM (top of the series)", "activity change (%)": "105.3"}
{"structure": "COC(=O)C1C=CC(OC2OC(COC(C)=O)C(OC(C)=O)C(OC(C)=O)C2OC(C)=O)n2c(=O)n(-c3ccccc3)c(=O)n21", "stereo": "centres unmarked", "setting": "at 35 µM (top of the series)", "activity change (%)": "-55.77"}
{"structure": "CCCCC(=O)NC(c1ccccc1)c1ccc2cccnc2c1O", "stereo": "centres unmarked", "setting": "at 35 µM (top of the series)", "activity change (%)": "-30.33"}
{"structure": "CC1CCN(CCc2nc3cc(NS(=O)(=O)c4ccccc4)ccc3n2C)CC1", "setting": "at 35 µM (top of the series)", "activity change (%)": "-63.5"}
{"structure": "CCCCCN=C(N)N/N=C/c1c[nH]c2ccc(OC)cc12", "setting": "at 35 µM (top of the series)", "activity change (%)": "-9.569"}
{"structure": "CSC(=Nc1ccccc1)N=C(SCc1ccccc1)N(C)C", "setting": "at 35 µM (top of the series)", "activity change (%)": "-69.69"}
{"structure": "COc1cc(C2C3=C(COC3=O)Oc3cc4c(cc32)OCO4)cc(OC)c1O", "stereo": "centres unmarked", "setting": "at 35 µM (top of the series)", "activity change (%)": "-35.97"}
{"structure": "O=c1[nH]c2ccccc2n1C1CCN(C(c2cc3ccccc3o2)c2nnnn2-c2ccc3c(c2)OCCO3)CC1", "stereo": "centres unmarked", "setting": "at 35 µM (top of the series)", "activity change (%)": "-17.83"}
{"structure": "CCN(C(=O)COC(=O)c1ccc(S(=O)(=O)N2CCCc3ccccc32)cc1)C1CCS(=O)(=O)C1", "stereo": "centres unmarked", "setting": "at 35 µM (top of the series)", "activity change (%)": "-0.462"}
{"structure": "O=C(O)c1cccc(COc2ccc3c(c2)CCC3)c1", "setting": "at 35 µM (top of the series)", "activity change (%)": "-66.23"}
{"structure": "C=C1C(=O)C23C(O)C1CCC2C12CCCC(C)(COC(C)=O)C1C(O)C3(O)OC2", "stereo": "centres unmarked", "setting": "at 35 µM (top of the series)", "activity change (%)": "-77.72"}
{"structure": "COc1ccc(-c2cnc3c(NC=O)cc(-c4cccc(NS(C)(=O)=O)c4)cn23)cc1OC", "setting": "at 16 µM (top of the series)", "activity change (%)": "31.03"}
{"structure": "COc1ccc(S(=O)(=O)Nc2ccc3c(c2)C(=O)N([C@H](C)CO)C[C@H](C)[C@@H](CN(C)S(=O)(=O)c2ccc(Cl)cc2)OCCCC[C@H](C)O3)cc1", "setting": "at 35 µM (top of the series)", "activity change (%)": "-27.68"}
{"structure": "Cc1ccc(Cn2ccsc2=NC(=O)CCl)cc1", "setting": "at 35 µM (top of the series)", "activity change (%)": "-20.56"}
{"structure": "C[C@H]1CCCCO[C@H](CN(C)Cc2ccc(Cl)c(Cl)c2)[C@@H](C)CN([C@@H](C)CO)C(=O)c2cc(NC(=O)Nc3ccc(C(F)(F)F)cc3)ccc2O1", "setting": "at 35 µM (top of the series)", "activity change (%)": "-53.89"}

The last 4 entries again:

{"structure": "COc1ccc(-c2cnc3c(NC=O)cc(-c4cccc(NS(C)(=O)=O)c4)cn23)cc1OC", "setting": "at 16 µM (top of the series)", "activity change (%)": "31.03"}
{"structure": "COc1ccc(S(=O)(=O)Nc2ccc3c(c2)C(=O)N([C@H](C)CO)C[C@H](C)[C@@H](CN(C)S(=O)(=O)c2ccc(Cl)cc2)OCCCC[C@H](C)O3)cc1", "setting": "at 35 µM (top of the series)", "activity change (%)": "-27.68"}
{"structure": "Cc1ccc(Cn2ccsc2=NC(=O)CCl)cc1", "setting": "at 35 µM (top of the series)", "activity change (%)": "-20.56"}
{"structure": "C[C@H]1CCCCO[C@H](CN(C)Cc2ccc(Cl)c(Cl)c2)[C@@H](C)CN([C@@H](C)CO)C(=O)c2cc(NC(=O)Nc3ccc(C(F)(F)F)cc3)ccc2O1", "setting": "at 35 µM (top of the series)", "activity change (%)": "-53.89"}

From PubChem BioAssay record AID743020 (Broad Institute, 2013).